From patent publication US20240018268A1
These are yes or no findings as the source states them, for the method shown. Some binding calls cover weakened binding; strength is not graded here.

Sequences of proteins named here, by UniProt entry; tags and fusion partners are left off. A change or cut given only in a name is not applied to a line headed by its entry.
UniProt P10747: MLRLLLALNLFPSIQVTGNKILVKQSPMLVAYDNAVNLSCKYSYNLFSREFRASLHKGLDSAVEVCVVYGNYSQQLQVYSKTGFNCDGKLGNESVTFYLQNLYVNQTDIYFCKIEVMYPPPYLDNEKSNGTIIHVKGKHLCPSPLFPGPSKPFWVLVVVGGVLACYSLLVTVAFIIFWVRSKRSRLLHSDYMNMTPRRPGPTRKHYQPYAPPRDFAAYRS
UniProt P20963: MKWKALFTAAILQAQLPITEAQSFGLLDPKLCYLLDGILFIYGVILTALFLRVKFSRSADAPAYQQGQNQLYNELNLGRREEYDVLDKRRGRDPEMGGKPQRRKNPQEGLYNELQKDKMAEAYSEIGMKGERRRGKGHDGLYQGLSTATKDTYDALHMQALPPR

Columns and labels:
[1] = molecular target: T1, anti-CD19 (SJ25C1-derived) chimeric antigen receptor (CAR), expressed on T cells or Jurkat cells (human) (UniProt P10747+P20963); test: flow cytometry, Alexa647-conjugated antibody, 20 to 0.0195 µg/mL, on CAR-transduced T cells; A-1 is the one named clone of the five
[2] = molecular target: T1, anti-CD19 (SJ25C1-derived) chimeric antigen receptor (CAR), expressed on T cells or Jurkat cells (human); test: inferred from a T cell proliferation assay with plate-bound antibody

binding [1]: binds | binding [2]: binds
B1: anti-idiotype antibody clone A-1 (anti-ID A-1) (antibody, mouse IgG1, kappa, V domains shown)
VH: QVQLQQPGSELVRPGGSVKLSCKASDYTFTSYWMHWVRQRPGQGLEWIGNIYPGSGGTNYDEKFKRKATLTVDTSSSTAYMQLRSLTSEDSAVYYCTREVTTVAYYYSMDYWGQGTSVTVSS
VL: DIQMTQTTSSLSASLGDRVTISCRASQDISNYLNWYQQKPDGTVKLLIYYTSRLHSGVPSRFSGSGSGTDYSLTISNLEQEDIATYFCQQGKTVPFTFGSGTKLEIKR
